The list shows a part of the results.

The chains behind the UniProt entries cited, without tags or fusion partners.
UniProt Q0JBA9, entry or part of it: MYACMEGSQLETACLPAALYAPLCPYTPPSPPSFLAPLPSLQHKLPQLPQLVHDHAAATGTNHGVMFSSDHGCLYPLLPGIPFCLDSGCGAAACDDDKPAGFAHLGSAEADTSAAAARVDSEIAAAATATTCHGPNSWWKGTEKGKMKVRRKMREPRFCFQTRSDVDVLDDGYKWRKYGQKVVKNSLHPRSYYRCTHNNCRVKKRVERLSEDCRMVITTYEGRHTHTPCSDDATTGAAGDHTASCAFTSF

The results in this text go back to article PMC7819943, “Rice protein-binding microarrays: a tool to detect cis-acting elements near promoter regions in rice”.

For this assay, the target named is OsWRKY34 (Oryza sativa, UniProt Q0JBA9 1-250). In words: protein-binding microarray (RPBM); PBS, 2% BSA, 51.3 ng/ul salmon testes DNA, 50 uM zinc acetate, 200 nM TF, 25 C, 1 h; high values mean tight binding. The conditions noted are these: protein: recombinant; tags: N-terminal polyhistidine and DsRed monomer fusion (pET32a); label: CyDye5-dUTP incorporated in the synthesized complementary strand; 3' TTTTT single-stranded linker to array surface; dsDNA, one strand shown. The method, boiled down: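 A custom Agilent array was converted to double-stranded form by primer extension with Cy5-dUTP and blocked with 2% BSA. Protein at 200 nM in PBS with 2% BSA, salmon testes DNA and 50 µM zinc acetate was applied for 1 h at 25 °C, followed by washing. The proteins were polyhistidine–DsRed N-terminal fusions of transcription factors, expressed in E. coli BL21-CodonPlus and Ni–NTA-purified. The binding signal is per-feature fluorescence intensity (arbitrary units) from an Axon 4000B scanner.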
For the sequence “TTGTGCTTGTAGTAATTCTTTTTTTTTTTAACGACGGTACCGGAGTCACCTAGTGCAG”, the binding signal is 8780 fluorescence intensity (a.u.).

Take “TTATCTGATTCCTATGTTTTTCCTGCGGTCCAATCAAACGCGGAGTCACCTAGTGCAG”: the binding signal is 8950 fluorescence intensity (a.u.). Then “AAACTTTGGCTCTTGTACTTCTAGTTTTGGTCTTGTGATACGGAGTCACCTAGTGCAG”, with 11000 fluorescence intensity (a.u.); and “CCACTCGTAGTGGTGCTGTGCTCTTTTGATCTTGCTCGTACGGAGTCACCTAGTGCAG”, with 8580 fluorescence intensity (a.u.); and “ATTCGAGTCTCATCTCCATCCTTCACGCGACGTGCTGCTCCGGAGTCACCTAGTGCAG”, with 12100 fluorescence intensity (a.u.). On to “CCACTCACCACGCGCGCTGCCCGCTTGCCTCCTCTGCCCACGGAGTCACCTAGTGCAG”, for which the binding signal was 10200 fluorescence intensity (a.u.). Then “TCGAGCACGACCACGCCTCACGCCGATCCTCCATCGCGCGCGGAGTCACCTAGTGCAG”, with 8600 fluorescence intensity (a.u.).

Take “ATCTTTTCCATCCTTTGCATCAGCGTCGTACGACTCTCTCCGGAGTCACCTAGTGCAG”: the binding signal is 11900 fluorescence intensity (a.u.). In the case of “CTACCTTGACGCCCACTAACATCCCGTATTGAACATCCCACGGAGTCACCTAGTGCAG” it was 8720 fluorescence intensity (a.u.).

Regarding “GGCGGGGCCCCACATCGACCGCGCCGTCGGCCCCGCCGCGCGGAGTCACCTAGTGCAG”, the binding signal was 8310 fluorescence intensity (a.u.). Then “TCTGCCTCGTCGATCGCCTATTTGCCTTTTCTACCTAGAACGGAGTCACCTAGTGCAG”, with 15100 fluorescence intensity (a.u.). In the case of “CAGTCACTTGGTCGAATTTTTTTAATTTCCTTCTGTTCTACGGAGTCACCTAGTGCAG” it was 8920 fluorescence intensity (a.u.); in that of “CCGGTCTCGTTGACCCCGTCTCCACCGCTTGCTCTCGCCGCGGAGTCACCTAGTGCAG”, 10600 fluorescence intensity (a.u.); in that of “CATTGCATTGCACTGCTGCTGCTTCACTCCACTGCGCACTCGGAGTCACCTAGTGCAG”, 9300 fluorescence intensity (a.u.). Then “CGCCATTTTCTCATGCCCGCCGCCGCCTCCACCGCGAGGACGGAGTCACCTAGTGCAG”, with 10400 fluorescence intensity (a.u.); and “TCATGGTTTCTGCCTATAATACCGAGCGTACATCCGAGCCCGGAGTCACCTAGTGCAG”, with 8860 fluorescence intensity (a.u.). Take “TACGTGCCCCATCACATGCAACGATTCTGCGTCGATCGATCGGAGTCACCTAGTGCAG”: the binding signal was 9440 fluorescence intensity (a.u.). In the case of “GGTTTGTTTCTACTTTTTACTGTACTTTGCTACCAAGAAACGGAGTCACCTAGTGCAG” it was 10400 fluorescence intensity (a.u.). “GGTTTCTTGGATTGGGCTGTGGCTGGCGTTGGTCGGAGGACGGAGTCACCTAGTGCAG”: the binding signal was 19100 fluorescence intensity (a.u.). Turning to “CTTTAGTTGTCAGTAGTGGTAACCTGTCTTTTGTGATCGGCGGAGTCACCTAGTGCAG”, the binding signal was 9160 fluorescence intensity (a.u.). Then “ACACCATTTTCTTCATTATATAGACTTAAGTACATGCAAACGGAGTCACCTAGTGCAG”, with 8170 fluorescence intensity (a.u.); and “TCTTACACGTTATTTTTTTATTGTTATCATACTAAATTCCCGGAGTCACCTAGTGCAG”, with 8400 fluorescence intensity (a.u.); and “GTTTGTACTCTTATCTTTTCTGTCTGATTGTTCTGATATTCGGAGTCACCTAGTGCAG”, with 12200 fluorescence intensity (a.u.). Then “GCTGATTAGTTTCACTGTTGAGCCATCGTGCAACATTGCACGGAGTCACCTAGTGCAG”, with 9600 fluorescence intensity (a.u.); and “GTTGACTTTTTGACAAACGTTTGACTTTTCGTCTTATTCACGGAGTCACCTAGTGCAG”, with 17400 fluorescence intensity (a.u.); and “TTGTTGTGTATGTTTCCAATCGGTTCGTTTGCAACGCATACGGAGTCACCTAGTGCAG”, with 8440 fluorescence intensity (a.u.). Then “TGTCTATCTATCTTCTACTCCTATCTATTTATTCTATAACCGGAGTCACCTAGTGCAG”, with 10800 fluorescence intensity (a.u.); and “CTCTCTTATCCGATTCCTGTGTTTTTTCTGTGGTCTAATCCGGAGTCACCTAGTGCAG”, with 11400 fluorescence intensity (a.u.). For “AAGAAATCTTCCCTGTCCTACCTTTTCTTCTCACTGTATGCGGAGTCACCTAGTGCAG”, the binding signal is 8860 fluorescence intensity (a.u.).

Turning to “CGCCGTCGCCGTCGCGCTCATCCACGTCACCATGGACGAACGGAGTCACCTAGTGCAG”, the binding signal was 9130 fluorescence intensity (a.u.).

Regarding “TTGGCGTGATGGGAATTTTTTTCATATTTACATTTTTATTCGGAGTCACCTAGTGCAG”, the binding signal is 8870 fluorescence intensity (a.u.). In the case of “CATTGTAGTTTATTTTTCAGCCTCTACTTTTAGATCGTTACGGAGTCACCTAGTGCAG” it was 8740 fluorescence intensity (a.u.); in that of “TGGTCTTGTGGTGCCTTTTTTCCTGCTTTTCAGCTTTCTACGGAGTCACCTAGTGCAG”, 16000 fluorescence intensity (a.u.). In the case of “ACGACGAGGTCGCTTTTTTCTTGTTGGGCTGGGCTGGGATCGGAGTCACCTAGTGCAG” it was 21800 fluorescence intensity (a.u.). In the case of “AAGCCACAACGCTCACAGCGCGCGCGCCTCCAGTCTTCTCCGGAGTCACCTAGTGCAG” it was 8190 fluorescence intensity (a.u.); in that of “CGTGGTTGACTATTTATTATTGAAGCCTTGCAACATGGACCGGAGTCACCTAGTGCAG”, 13200 fluorescence intensity (a.u.). On to “CTCATACTATTTTGGTTTGTCGATATGTTCAGCAAGACGTCGGAGTCACCTAGTGCAG”, for which the binding signal was 9070 fluorescence intensity (a.u.).

For “CCACTCCACATCACGATCGCGGGCGCCGGTATGCTTCTTCCGGAGTCACCTAGTGCAG”, the binding signal was 9680 fluorescence intensity (a.u.). Then “GCACTAGCAGCCACGCTCGCCCGCCGCCGCCCGTCCTGCCCGGAGTCACCTAGTGCAG”, with 8350 fluorescence intensity (a.u.); and “CCGTCGACCGCCTCGTCCTCTGCCTCGGCTGCTTCTGGATCGGAGTCACCTAGTGCAG”, with 13800 fluorescence intensity (a.u.); and “GTATATACCCTAACTTGTCATCCCACTCAGCTGTCCGTCCCGGAGTCACCTAGTGCAG”, with 8100 fluorescence intensity (a.u.). In the case of “CTTCTTAGTACTGCATATATTTTCTTGATTGCTTCAGTGACGGAGTCACCTAGTGCAG” it was 8300 fluorescence intensity (a.u.). Consider “AAACTTATTTGGCCATGGTGTCATCGGGGTTGGCGTTTAGCGGAGTCACCTAGTGCAG”, for which the binding signal was 10000 fluorescence intensity (a.u.).

With “GGGTGTCATATCGGATGTTTGACCGGATGTCGGATGGGTTCGGAGTCACCTAGTGCAG”, the binding signal is 10400 fluorescence intensity (a.u.). Then “TGTAGGAGTAGTCTCTCACAGCTCTCGCTTTCTCCTCTCACGGAGTCACCTAGTGCAG”, with 8030 fluorescence intensity (a.u.). Then “TACCTGGACTAATGGTGCATTTATCGCCCGCGACTAAACACGGAGTCACCTAGTGCAG”, with 8240 fluorescence intensity (a.u.); and “CCCAGCCGCGTCGCTCACTGTTTTCCTCCACCGCCGCAGTCGGAGTCACCTAGTGCAG”, with 11000 fluorescence intensity (a.u.); and “TCATTTGTCATCCATAAGTTTATATTTTGTACTTTTAGTTCGGAGTCACCTAGTGCAG”, with 8550 fluorescence intensity (a.u.). In the case of “TTTTTATTTTTTTCCACATTTTATCCTATTTGTACCATATCGGAGTCACCTAGTGCAG” it was 8900 fluorescence intensity (a.u.). On to “GATTCTCCCTTTCTCCCTTATCATTTTTGCCATGATTTTTCGGAGTCACCTAGTGCAG”, for which the binding signal was 8760 fluorescence intensity (a.u.). “AGCTCCTATATTTTGTATACGACAGCAAGCAGCGACCGATCGGAGTCACCTAGTGCAG”: the binding signal was 8240 fluorescence intensity (a.u.).

On to “GCATTTCCGTCCCCGTTCCCGTTCCCGTTCCCGTTTGGGTCGGAGTCACCTAGTGCAG”, for which the binding signal was 8290 fluorescence intensity (a.u.). Then “TTGGATGGATGGGATCACCTTGCATTTTCGCTCTACTTCACGGAGTCACCTAGTGCAG”, with 8580 fluorescence intensity (a.u.); and “CACCGTCTCCGCCTCCGCCCTCGGCGTCGACCCCACCACCCGGAGTCACCTAGTGCAG”, with 8670 fluorescence intensity (a.u.).
